# These are yes or no findings as the source states them, for the method shown. In cells and extracts the contact can be indirect. A result given as binding can be weak or reduced; the word gives no strength. Tags and fused reporters may be left off the sequences shown.
# The chains behind the UniProt entries cited, without tags or fusion partners. Where a name states a change or a piece, a line headed by the entry shows the natural chain unless it says otherwise.
# UniProt Q9SRY3: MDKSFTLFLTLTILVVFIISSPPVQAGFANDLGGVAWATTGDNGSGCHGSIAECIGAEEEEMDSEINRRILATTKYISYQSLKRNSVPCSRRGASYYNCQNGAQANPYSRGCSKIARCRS
# Biological target: MBP-RALF1 (Arabidopsis) (UniProt Q9SRY3)
# Test: pull-down; MBP-RALF1 bait on resin; extract of protoplasts co-expressing FER-GFP and HA-LLG1; detected by anti-GFP or anti-HA; only the target purified
binder,measurement,value
"HA-LLG1 (protein, UniProt Q9FKT1 24-144) SFISDGVFESQSLVLGRNLLQTKKTCPVNFEFMNYTIITSKCKGPKYPPKECCGAFKDFACPYTDQLNDLSSDCATTMFSYINLYGKYPPGLFANQCKEGKEGLECPAGSQLPPETSAEVN",binding,binds
